The list shows a part of the results. Repeats are few or missing, and single values can be far off.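 Cells were imaged in 1,536-well plates, and nuclei stained with an antibody against cleaved PARP were counted against all DNA-stained nuclei to give the apoptosis fraction. Screening doses were chosen to leave most cells alive, and resting and induced cleaved-PARP levels differ strongly between cell lines.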

The first experiment relates to WM115. Kind of experiment: cleaved PARP positive nuclei fraction relative to DMSO control; melanoma cells; higher = more apoptosis. The note with it: library dose: low library concentration; 72 h.
Turning to `Cc1cc(Nc2cc(N3CCN(C)CC3)nc(Sc3ccc(NC(=O)C4CC4)cc3)n2)n[nH]1` [Tozasertib] + O=C(O)[C@@H]1[O][Sb](=[O])([O][Sb]2(=[O])[O][C@H]([C@H](O)CO)[C@H](O)[C@H](C(=O)O)[O]2)[O][C@H]([C@H](O)CO)[C@@H]1O [stibogluconate] (first compound 0.006 µM, partner dose 2 µM), the “cleaved PARP positive nuclei fraction” value turned out to be 83.6%.
In the case of `O=C(/C=C/c1cccnc1)NCCCCC1CCN(C(=O)c2ccccc2)CC1` + Nc1ccn([C@@H]2O[C@H](CO)[C@@H](O)C2(F)F)c(=O)n1 [gemcitabine] (first compound 0.01 µM, partner dose 0.0004 µM), the “cleaved PARP positive nuclei fraction” value is 75%.
`O=C(/C=C/c1cccnc1)NCCCCC1CCN(C(=O)c2ccccc2)CC1` + O=C(O)c1ccc2c(c1)nc(Nc1cccc(Cl)c1)c1ccncc12 [CX4945] (first compound 0.01 µM, partner dose 0.4 µM): the “cleaved PARP positive nuclei fraction” value is 142%.
On to `O=C(/C=C/c1cccnc1)NCCCCC1CCN(C(=O)c2ccccc2)CC1` + Cc1ccc(Nc2nccc(N(C)c3ccc4c(C)n(C)nc4c3)n2)cc1S(N)(=O)=O [Pazopanib] (first compound 0.01 µM, partner dose 0.4 µM), for which the “cleaved PARP positive nuclei fraction” value is 104%.
For `Cc1cc(Nc2cc(N3CCN(C)CC3)nc(Sc3ccc(NC(=O)C4CC4)cc3)n2)n[nH]1` [Tozasertib] + CC(C)C[C@H](NC(=O)[C@H](Cc1ccccc1)NC(=O)c1cnccn1)B(O)O [Bortezomib] (first compound 0.006 µM, partner dose 0.001 µM), the “cleaved PARP positive nuclei fraction” value was determined as 128%.
In the case of `Cc1ccc(Nc2nccc(N(C)c3ccc4c(C)n(C)nc4c3)n2)cc1S(N)(=O)=O` [Pazopanib] + Cn1c(=O)n(-c2ccc(C(C)(C)C#N)cc2)c2c3cc(-c4cnc5ccccc5c4)ccc3ncc21 [NVP-BEZ235] (first compound 0.4 µM, partner dose 0.004 µM), the “cleaved PARP positive nuclei fraction” value was determined as 226%.
In the case of `Cc1cc(Nc2cc(N3CCN(C)CC3)nc(Sc3ccc(NC(=O)C4CC4)cc3)n2)n[nH]1` [Tozasertib] + CS(=O)(=O)CCNCc1ccc(-c2ccc3ncnc(Nc4ccc(OCc5cccc(F)c5)c(Cl)c4)c3c2)o1 [lapatinib] (first compound 0.006 µM, partner dose 0.8 µM), the “cleaved PARP positive nuclei fraction” value was determined as 52.1%.
Same read-out and setting: in the case of `Cc1ccc(Nc2nccc(N(C)c3ccc4c(C)n(C)nc4c3)n2)cc1S(N)(=O)=O` [Pazopanib] + Nc1nc(F)nc2c1ncn2[C@@H]1O[C@H](CO)[C@@H](O)[C@@H]1O [fludarabine] (first compound 0.4 µM, partner dose 0.2 µM) it was 183%; in that of `N#CC[C@H](C1CCCC1)n1cc(-c2ncnc3[nH]ccc23)cn1` [ruxolitinib] + CC(=O)c1c(C)c2cnc(Nc3ccc(N4CCNCC4)cn3)nc2n(C2CCCC2)c1=O [palbociclib] (first compound 1 µM, partner dose 0.04 µM), 162%.
Take `O=C(Nc1cc(C(F)(F)F)cc(C(F)(F)F)c1)c1cc(Cl)ccc1O` + Nc1nc(F)nc2c1ncn2[C@@H]1O[C@H](CO)[C@@H](O)[C@@H]1O [fludarabine] (first compound 0.016 µM, partner dose 0.2 µM): the “cleaved PARP positive nuclei fraction” value was 104%.
On to `O=C(Nc1cc(C(F)(F)F)cc(C(F)(F)F)c1)c1cc(Cl)ccc1O` + O=C(/C=C/c1cccnc1)NCCCCC1CCN(C(=O)c2ccccc2)CC1 [FK866] (first compound 0.016 µM, partner dose 0.01 µM), for which the “cleaved PARP positive nuclei fraction” value was determined as 29.2%.

Another experiment relates to WM1716. Described as above. The note with it: library dose: low library concentration; 72 h.
Regarding `N#CC[C@H](C1CCCC1)n1cc(-c2ncnc3[nH]ccc23)cn1` [ruxolitinib] + C=CCNC1=C2C[C@@H](C)C[C@H](OC)[C@H](O)[C@@H](C)/C=C(\C)[C@H](OC(N)=O)[C@@H](OC)/C=C\C=C(/C)C(=O)NC(=CC1=O)C2=O [Tanespimycin] (first compound 1 µM, partner dose 0.002 µM), the “cleaved PARP positive nuclei fraction” value was 452%.
The same measure, in the same setting: with `Cc1cn(-c2cc(NC(=O)c3ccc(C)c(Nc4nccc(-c5cccnc5)n4)c3)cc(C(F)(F)F)c2)cn1` [nilotinib] + COCC[n+]1c2c(n(Cc3cnccn3)c1C)C(=O)c1ccccc1C2=O [YM155] (first compound 0.2 µM, partner dose 0.0004 µM) the figure was 69%; with `Cc1cn(-c2cc(NC(=O)c3ccc(C)c(Nc4nccc(-c5cccnc5)n4)c3)cc(C(F)(F)F)c2)cn1` [nilotinib] + CCN(CC)CCNC(=O)c1c(C)[nH]c(/C=C2\C(=O)Nc3ccc(F)cc32)c1C [sunitinib] (first compound 0.2 µM, partner dose 0.4 µM), 79.6%; with `COc1cc([C@@H]2c3cc4c(cc3[C@@H](O[C@@H]3O[C@@H]5CO[C@@H](C)O[C@H]5[C@H](O)[C@H]3O)[C@H]3COC(=O)[C@H]23)OCO4)cc(OC)c1O` [etoposide] + CNC(=O)c1cc(Oc2ccc(NC(=O)Nc3ccc(Cl)c(C(F)(F)F)c3)cc2)ccn1 [sorafenib] (first compound 0.02 µM, partner dose 0.4 µM), 113%.
On the same count and under the same terms, with `Cc1cc(Nc2cc(N3CCN(C)CC3)nc(Sc3ccc(NC(=O)C4CC4)cc3)n2)n[nH]1` [Tozasertib] + CN1CCN(c2ccc3nc(-c4c(N)c5c(F)cccc5[nH]c4=O)[nH]c3c2)CC1 [Dovitinib] (first compound 0.006 µM, partner dose 0.1 µM) the figure was 101%; with `COc1cc([C@@H]2c3cc4c(cc3[C@@H](O[C@@H]3O[C@@H]5CO[C@@H](C)O[C@H]5[C@H](O)[C@H]3O)[C@H]3COC(=O)[C@H]23)OCO4)cc(OC)c1O` [etoposide] + Nc1cccc2c1CN(C1CCC(=O)NC1=O)C2=O [lenalidomide] (first compound 0.02 µM, partner dose 1 µM), 45.7%.
On to `CC[C@]1(O)C[C@H]2CN(CCc3c([nH]c4ccccc34)[C@@](C(=O)OC)(c3cc4c(cc3OC)N(C=O)[C@H]3[C@@](O)(C(=O)OC)[C@H](OC(C)=O)[C@]5(CC)C=CCN6CC[C@]43[C@@H]65)C2)C1` [vincristine] + Cc1cn(-c2cc(NC(=O)c3ccc(C)c(Nc4nccc(-c5cccnc5)n4)c3)cc(C(F)(F)F)c2)cn1 [nilotinib] (first compound 0.0001 µM, partner dose 0.2 µM), for which the “cleaved PARP positive nuclei fraction” value turned out to be 232%.
For `N#CC[C@H](C1CCCC1)n1cc(-c2ncnc3[nH]ccc23)cn1` [ruxolitinib] + Nc1cccc2c1CN(C1CCC(=O)NC1=O)C2=O [lenalidomide] (first compound 1 µM, partner dose 1 µM), the “cleaved PARP positive nuclei fraction” value is 35.6%.
As to `N#CC[C@H](C1CCCC1)n1cc(-c2ncnc3[nH]ccc23)cn1` [ruxolitinib] + COCC[n+]1c2c(n(Cc3cnccn3)c1C)C(=O)c1ccccc1C2=O [YM155] (first compound 1 µM, partner dose 0.0004 µM), the “cleaved PARP positive nuclei fraction” value turned out to be 1330%.
Consider `CCCCCCCCCCCCCCCCCCOP(=O)([O-])OC1CC[N+](C)(C)CC1` [Perifosine] + O=C(O)[C@@H]1[O][Sb](=[O])([O][Sb]2(=[O])[O][C@H]([C@H](O)CO)[C@H](O)[C@H](C(=O)O)[O]2)[O][C@H]([C@H](O)CO)[C@@H]1O [stibogluconate] (first compound 0.4 µM, partner dose 2 µM), for which the “cleaved PARP positive nuclei fraction” value is 69.2%.
Take `O=c1[nH]nc(Sc2ncc([N+](=O)[O-])s2)n1-c1ccc2c(c1)OCCO2` + Nc1ncn([C@H]2C[C@H](O)[C@@H](CO)O2)c(=O)n1 [decitabine] (first compound 0.2 µM, partner dose 0.1 µM): the “cleaved PARP positive nuclei fraction” value came out at 39.5%.
On the same count and under the same terms, with `O=C(Nc1cc(C(F)(F)F)cc(C(F)(F)F)c1)c1cc(Cl)ccc1O` + CC(C)C[C@H](NC(=O)[C@H](Cc1ccccc1)NC(=O)c1cnccn1)B(O)O [Bortezomib] (first compound 0.016 µM, partner dose 0.001 µM) the figure was 115%; with `N#CC[C@H](C1CCCC1)n1cc(-c2ncnc3[nH]ccc23)cn1` [ruxolitinib] + C[C@]1(O)C[C@@H](c2nc(-c3ccc4ccc(-c5ccccc5)nc4c3)c3c(N)nccn32)C1 [OSI906] (first compound 1 µM, partner dose 0.4 µM), 35%.
Take `Cc1cc(Nc2cc(N3CCN(C)CC3)nc(Sc3ccc(NC(=O)C4CC4)cc3)n2)n[nH]1` [Tozasertib] + CNC(=O)c1cc(Oc2ccc(NC(=O)Nc3ccc(Cl)c(C(F)(F)F)c3)cc2)ccn1 [sorafenib] (first compound 0.006 µM, partner dose 0.4 µM): the “cleaved PARP positive nuclei fraction” value turned out to be 115%.
Take `Cc1ccc(Nc2nccc(N(C)c3ccc4c(C)n(C)nc4c3)n2)cc1S(N)(=O)=O` [Pazopanib] + CN1CCN(c2ccc3nc(-c4c(N)c5c(F)cccc5[nH]c4=O)[nH]c3c2)CC1 [Dovitinib] (first compound 0.4 µM, partner dose 0.1 µM): the “cleaved PARP positive nuclei fraction” value was determined as 69.3%.
On the same count and under the same terms, with `Cc1cn(-c2cc(NC(=O)c3ccc(C)c(Nc4nccc(-c5cccnc5)n4)c3)cc(C(F)(F)F)c2)cn1` [nilotinib] + Cn1c(=O)n(-c2ccc(C(C)(C)C#N)cc2)c2c3cc(-c4cnc5ccccc5c4)ccc3ncc21 [NVP-BEZ235] (first compound 0.2 µM, partner dose 0.004 µM) the figure was 145%.
`O=c1[nH]nc(Sc2ncc([N+](=O)[O-])s2)n1-c1ccc2c(c1)OCCO2` + C=CCNC1=C2C[C@@H](C)C[C@H](OC)[C@H](O)[C@@H](C)/C=C(\C)[C@H](OC(N)=O)[C@@H](OC)/C=C\C=C(/C)C(=O)NC(=CC1=O)C2=O [Tanespimycin] (first compound 0.2 µM, partner dose 0.002 µM): the “cleaved PARP positive nuclei fraction” value was found to be 117%.

(Values after the supplement of paper PMC4604168 (melanoma cell lines).)
